Assay results taken from patent publication US7259140B2, “Heparin-binding peptides and uses thereof” (Thomas Jefferson University, priority 2003, dated 2007).
At least one peptide structure holds a part that was inferred or is arguable (an end, a ring closure or a residue). Some results were stated once for a whole list of compounds, not compound by compound. Some compounds share one range, which may span the group rather than tell each member. Ends that are not written are not given here.

Key:
Format in all cases: biochemical, human
[1] = test system: unfractionated heparin (thrombin-induced clot formation); test: Thrombin neutralization assay: clotting time of citrated plasma in the presence of unfractionated heparin; conditions: for Time for clot formation: UFH 0.5 IU/ml
Description: It was determined whether heparin-binding peptides of the invention can neutralize unfractionated heparin using the thrombin neutralization assay. The six peptides that were synthesized and used in this Example are: (ARKKAAKA)3VLVLVLVL (SEQ ID NO:5); (ARKKAAKA)(A16)(ARKKAAKA) (SEQ ID NO:30); (ARKKAAKA)4 (SEQ ID NO:31); (AKKARA)6 (SEQ ID NO:32); (ARKKAAKA)3(ARKKCAKA) (SEQ ID NO:33); and cyclized C(ARKKAAKA)4C (SEQ ID NO:34); Citrated plasma was pipetted into a glass tube. Thrombin was added, the tube was manually rotated, and clotting time was determined by observation of clot formation. Normal clotting time is 19-22 seconds.
As a control, to assess the effect of heparin on clot formation, unfractionated heparin was added to the plasma at 0.5 IU anti-thrombin activity/ml and then thrombin was added. Clotting time in the presence of heparin alone was greater than 3 minutes.
To test the effect of peptides, heparin and six peptides at the concentrations indicated in Table 4 were added to the plasma, the mixture was allowed to stand at room temperature for 1 minute, and thrombin was added. The time for the clot to form is indicated. Experiments were performed using plasma from three volunteers—A, B, and C.

[2] = test system: Anti-Factor Xa Activity of the Non-Heparin Glycosaminoglycan Orgaran ®; test: Anti-Factor Xa assay: neutralization of Orgaran in citrate or plasma in vitro
Description: The ability of peptides such as (ARKKAAKA)3VLVLVLVL (SEQ ID NO:5) to neutralize the anti-Factor Xa activity of UFH and LMWH in vitro was tested using the Stachrom Heparin kit (Diagnostica Stago), a standard hematology laboratory assay used to measure the anti-Factor Xa activity of heparin. The assay was performed using the low molecular weight heparin enoxaparin sodium (Lovenox®, Aventis Pharmaceuticals, Inc.), unfractionated heparin (UFH), or the non-heparin glycosaminoglycan danaparoid sodium (Orgaran®, Organon Inc., West Orange, N.J.) in 0.32% citrate or in plasma anticoagulated with 0.32% citrate. Enoxaparin is commonly used clinically as a low molecular weight heparin (LMWH). Danaparoid is commonly used clinically as a non-heparin glycosaminoglycan anticoagulant. Currently, the only FDA approved drug to target UFH is protamine, which is not effective in vivo against LMWH or a non-heparin glycosaminoglycan such as danaparoid. Buffer and ATIII are added to form the heparin/ATIII complex, peptide is added, then Factor Xa, reporter dye substrate for Factor Xa activity, and stop solution, and the dye concentration is read at 405 nm. The absorbance of the dye increases with increasing Factor Xa activity, and thus is inversely proportional to the heparin (anti-Factor Xa activity) concentration. Peptides were tested in plasma obtained from three volunteers (A, B, and C). Platelet function inhibitors PG12 and theophylline were added to the blood immediately upon collection. […]

[3] = test system: anti-Factor Xa Activity of the Low Molecular Weight Heparin Lovenox ®; test: Anti-Factor Xa assay (Stachrom Heparin kit): neutralization of Lovenox in citrate or plasma in vitro; conditions: for Lovenox ® Neutralized: Lovenox 0.7 U/ml
Description: The ability of peptides such as (ARKKAAKA)3VLVLVLVL (SEQ ID NO:5) to neutralize the anti-Factor Xa activity of UFH and LMWH in vitro was tested using the Stachrom Heparin kit (Diagnostica Stago), a standard hematology laboratory assay used to measure the anti-Factor Xa activity of heparin. The assay was performed using the low molecular weight heparin enoxaparin sodium (Lovenox®, Aventis Pharmaceuticals, Inc.), unfractionated heparin (UFH), or the non-heparin glycosaminoglycan danaparoid sodium (Orgaran®, Organon Inc., West Orange, N.J.) in 0.32% citrate or in plasma anticoagulated with 0.32% citrate. Enoxaparin is commonly used clinically as a low molecular weight heparin (LMWH). Danaparoid is commonly used clinically as a non-heparin glycosaminoglycan anticoagulant. Currently, the only FDA approved drug to target UFH is protamine, which is not effective in vivo against LMWH or a non-heparin glycosaminoglycan such as danaparoid. Buffer and ATIII are added to form the heparin/ATIII complex, peptide is added, then Factor Xa, reporter dye substrate for Factor Xa activity, and stop solution, and the dye concentration is read at 405 nm. The absorbance of the dye increases with increasing Factor Xa activity, and thus is inversely proportional to the heparin (anti-Factor Xa activity) concentration. Peptides were tested in plasma obtained from three volunteers (A, B, and C). Platelet function inhibitors PG12 and theophylline were added to the blood immediately upon collection.
Results. […] (ARKKAAKA)3VLVLVLVL (SEQ ID NO:5) and VLVL(ARKKAAKA)3ARKKCAKA (SEQ ID NO:38) were able to neutralize about 0.4 U/ml anti-Factor Xa activity of LMWH at a concentration of 12 μg/ml, which would be an effective dose for patients. (AKKARA)6 (SEQ ID […]), (ARKKAAKA)4 (SEQ ID NO:31) and (ARKKAAKA)3ARKKCAKA […] 0.3-0.35 U/ml. In contrast, 12 μg protamine only neutralized about 0.25 U/ml of LMWH under these conditions.

For “ARKKAAKAARKKAAKAARKKAAKAARKKCAKA [(ARKKAAKA)3ARKKCAKA, (ARKKAAKA)3(ARKKCAKA)]”, the “Time for clot formation” value ([1]; 0.30 μg peptide/0.1 ml, plasma A) was 45.00 ± 1.63 s, the “Time for clot formation” value ([1]; 0.30 μg peptide/0.1 ml, plasma B) was 24.00 ± 1.41 s and the “Time for clot formation” value ([1]; 0.30 μg peptide/0.1 ml, plasma C) was 35.33 ± 2.05 s. For the same sequence, the “Time for clot formation” value ([1]; 0.35 μg peptide/0.1 ml, plasma A) was 29.33 ± 1.89 s, the “Time for clot formation” value ([1]; 0.35 μg peptide/0.1 ml, plasma B) was 25.00 ± 2.45 s and the “Time for clot formation” value ([1]; 0.40 μg peptide/0.1 ml, plasma A) was 27.00 ± 1.41 s. The “Time for clot formation” value ([1]; 0.40 μg peptide/0.1 ml, plasma B) was 19.00 ± 1.63 s, the “Time for clot formation” value ([1]; 0.40 μg peptide/0.1 ml, plasma C) was 26.67 ± 1.25 s and the “Time for clot formation” value ([1]; 0.50 μg peptide/0.1 ml, plasma A) was 22.00 ± 1.41 s. For the same sequence, the “Time for clot formation” value ([1]; 0.50 μg peptide/0.1 ml, plasma B) was 18.00 ± 0.00 s, the “Time for clot formation” value ([1]; 0.50 μg peptide/0.1 ml, plasma C) was 17.33 ± 0.47 s and the “peptide concentration that totally neutralizes heparin in thrombin-induced clot formation” value ([1]; UFH 0.5 IU anti-thrombin activity/ml) was 4.0 to 5.0 µg/mL. For the same sequence, the “Orgaran Neutralized” value ([2]; 1 μg/ml Peptide, A Plasma) was 0.060 ± 0.034 U/ml, the “Orgaran Neutralized” value ([2]; 1 μg/ml Peptide, B Plasma) was 0.011 ± 0.010 U/ml and the “Orgaran Neutralized” value ([2]; 1 μg/ml Peptide, C Plasma) was 0.013 ± 0.006 U/ml. For the same sequence, the “Orgaran Neutralized” value ([2]; 1 μg/ml Peptide, Citrate) was 0.028 ± 0.040 U/ml, the “Orgaran Neutralized” value ([2]; 6 μg/ml Peptide, A Plasma) was 0.062 ± 0.028 U/ml and the “Orgaran Neutralized” value ([2]; 6 μg/ml Peptide, B Plasma) was 0.040 ± 0.022 U/ml. For the same sequence, the “Orgaran Neutralized” value ([2]; 6 μg/ml Peptide, C Plasma) was 0.054 ± 0.015 U/ml, the “Orgaran Neutralized” value ([2]; 6 μg/ml Peptide, Citrate) was 0.118 ± 0.127 U/ml and the “Orgaran Neutralized” value ([2]; 12 μg/ml Peptide, A Plasma) was 0.068 ± 0.016 U/ml. For the same sequence, the “Orgaran Neutralized” value ([2]; 12 μg/ml Peptide, B Plasma) was 0.061 ± 0.032 U/ml, the “Orgaran Neutralized” value ([2]; 12 μg/ml Peptide, C Plasma) was 0.089 ± 0.034 U/ml and the “Orgaran Neutralized” value ([2]; 12 μg/ml Peptide, Citrate) was 0.134 ± 0.147 U/ml. For the same sequence, the “Orgaran Neutralized” value ([2]; 60 μg/ml Peptide, A Plasma) was 0.163 ± 0.017 U/ml, the “Orgaran Neutralized” value ([2]; 60 μg/ml Peptide, B Plasma) was 0.172 ± 0.013 U/ml and the “Orgaran Neutralized” value ([2]; 60 μg/ml Peptide, C Plasma) was 0.174 ± 0.019 U/ml. The “Orgaran Neutralized” value ([2]; 60 μg/ml Peptide, Citrate) was 0.234 ± 0.276 U/ml, the “Orgaran Neutralized” value ([2]; 120 μg/ml Peptide, A Plasma) was 0.244 ± 0.024 U/ml and the “Orgaran Neutralized” value ([2]; 120 μg/ml Peptide, B Plasma) was 0.286 ± 0.010 U/ml. For the same sequence, the “Orgaran Neutralized” value ([2]; 120 μg/ml Peptide, C Plasma) was 0.236 ± 0.019 U/ml, the “Orgaran Neutralized” value ([2]; 120 μg/ml Peptide, Citrate) was 0.366 ± 0.358 U/ml and the “Lovenox ® Neutralized” value ([3]; 1 μg/ml Peptide, A Plasma) was 0.036 ± 0.008 U/ml. The “Lovenox ® Neutralized” value ([3]; 1 μg/ml Peptide, B Plasma) was 0.033 ± 0.026 U/ml, the “Lovenox ® Neutralized” value ([3]; 1 μg/ml Peptide, C Plasma) was 0.044 ± 0.019 U/ml and the “Lovenox ® Neutralized” value ([3]; 1 μg/ml Peptide, Citrate) was 0.081 ± 0.033 U/ml. For the same sequence, the “Lovenox ® Neutralized” value ([3]; 6 μg/ml Peptide, A Plasma) was 0.281 ± 0.011 U/ml, the “Lovenox ® Neutralized” value ([3]; 6 μg/ml Peptide, B Plasma) was 0.253 ± 0.014 U/ml and the “Lovenox ® Neutralized” value ([3]; 6 μg/ml Peptide, C Plasma) was 0.221 ± 0.031 U/ml. The “Lovenox ® Neutralized” value ([3]; 6 μg/ml Peptide, Citrate) was 0.363 ± 0.083 U/ml, the “Lovenox ® Neutralized” value ([3]; 12 μg/ml Peptide, A Plasma) was 0.353 ± 0.007 U/ml and the “Lovenox ® Neutralized” value ([3]; 12 μg/ml Peptide, B Plasma) was 0.317 ± 0.021 U/ml. The “Lovenox ® Neutralized” value ([3]; 12 μg/ml Peptide, C Plasma) was 0.348 ± 0.042 U/ml, the “Lovenox ® Neutralized” value ([3]; 12 μg/ml Peptide, Citrate) was 0.544 ± 0.040 U/ml and the “anti-Factor Xa activity of LMWH neutralized” value ([3]; 12 μg/ml, plasma) was 0.3-0.35 U/ml. The “Lovenox ® Neutralized” value ([3]; 60 μg/ml Peptide, A Plasma) was 0.471 ± 0.043 U/ml, the “Lovenox ® Neutralized” value ([3]; 60 μg/ml Peptide, B Plasma) was 0.513 ± 0.039 U/ml and the “Lovenox ® Neutralized” value ([3]; 60 μg/ml Peptide, C Plasma) was 0.532 ± 0.011 U/ml. For the same sequence, the “Lovenox ® Neutralized” value ([3]; 60 μg/ml Peptide, Citrate) was 0.621 ± 0.089 U/ml, the “Lovenox ® Neutralized” value ([3]; 120 μg/ml Peptide, A Plasma) was 0.595 ± 0.028 U/ml and the “Lovenox ® Neutralized” value ([3]; 120 μg/ml Peptide, B Plasma) was 0.522 ± 0.023 U/ml. The “Lovenox ® Neutralized” value ([3]; 120 μg/ml Peptide, C Plasma) was 0.661 ± 0.017 U/ml, the “Lovenox ® Neutralized” value ([3]; 120 μg/ml Peptide, Citrate) was 0.647 ± 0.017 U/ml and the “Lovenox/LMWH neutralization compared with protamine” value ([3]; low concentrations, in the presence of plasma) was “more effective than protamine”.
